The structures appear in SMILES notation. This is one part of the list. Single values are uncertain, as repeats are few or missing.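 The apoptosis fraction was the count of cleaved-PARP antibody-stained nuclei relative to all DNA-stained nuclei, imaged in 1,536-well plates. Screening doses were set so most cells survived, and baseline and induced cleaved-PARP levels vary greatly across cell lines.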

This experiment relates to RPMI7951. The experiment can be described thus: cleaved PARP positive nuclei fraction relative to DMSO control; melanoma cells; higher = more apoptosis. To be noted: library dose: low library concentration; 72 h.
Consider `NC(=O)Nc1cc(-c2cccc(F)c2)sc1C(=O)N[C@H]1CCCNC1` + Oc1cc(-c2nc(-c3ccccc3)[nH]c2-c2ccncc2)ccc1Cl [L779450] (first compound 0.02 µM, partner dose 0.2 µM), for which the “cleaved PARP positive nuclei fraction” value was 161%.
`C#Cc1cccc(Nc2ncnc3cc(OCCOC)c(OCCOC)cc23)c1` [erlotinib] + c1cc(-c2cnn3cc(-c4ccc(OCCN5CCCCC5)cc4)cnc23)ccn1 [Dorsomorphin] (first compound 0.8 µM, partner dose 0.4 µM): the “cleaved PARP positive nuclei fraction” value amounted to 253%.
For the compound `O=C(CCCCCCC(=O)Nc1ccccc1)NO` [vorinostat] + CC(C)CCN1c2nc(Nc3cc(F)c(O)c(F)c3)ncc2N(C)C(=O)C1C [BID1870] (first compound 0.08 µM, partner dose 0.2 µM), the “cleaved PARP positive nuclei fraction” value amounted to 80.5%.
On to `C#Cc1cccc(Nc2ncnc3cc(OCCOC)c(OCCOC)cc23)c1` [erlotinib] + CCCCCCCCCCCC1=C(O)C(=O)C=C(O)C1=O [Embelin] (first compound 0.8 µM, partner dose 1.2 µM), for which the “cleaved PARP positive nuclei fraction” value came to 88.4%.
With `Cn1nnc2c(C(N)=O)ncn2c1=O` [temozolomide] + CC(C)CCN1c2nc(Nc3cc(F)c(O)c(F)c3)ncc2N(C)C(=O)C1C [BID1870] (first compound 2 µM, partner dose 0.2 µM), the “cleaved PARP positive nuclei fraction” value is 65.4%.
Regarding `C#Cc1cccc(Nc2ncnc3cc(OCCOC)c(OCCOC)cc23)c1` [erlotinib] + O=C(O)C(=O)Nc1sc2c(c1C(=O)O)CCNC2 [TCS401] (first compound 0.8 µM, partner dose 1.66667 µM), the “cleaved PARP positive nuclei fraction” value worked out at 176%.
Take `Cn1c(Nc2ccc(C(F)(F)F)cc2)nc2cc(Oc3ccnc(-c4ncc(C(F)(F)F)[nH]4)c3)ccc21` + CCc1ccc(CCOc2ccc(CC3SC(=O)NC3=O)cc2)nc1 [pioglitazone] (first compound 0.08 µM, partner dose 2 µM): the “cleaved PARP positive nuclei fraction” value worked out at 30.8%.
For `OCCn1cc(-c2cnc3nnn(Cc4ccc5ncccc5c4)c3n2)cn1` + N#Cc1c(O)c2c(-c3ccc(-c4ccccc4O)cc3)csc2[nH]c1=O [A769662] (first compound 1 µM, partner dose 2 µM), the “cleaved PARP positive nuclei fraction” value came to 166%.
In the case of `C=CCn1c(=O)c2cnc(Nc3ccc(N4CCN(C)CC4)cc3)nc2n1-c1cccc(C(C)(C)O)n1` + O=C(O)C(=O)Nc1sc2c(c1C(=O)O)CCNC2 [TCS401] (first compound 0.02 µM, partner dose 1.66667 µM), the “cleaved PARP positive nuclei fraction” value turned out to be 86.5%.
For the compound `Cn1nnc2c(C(N)=O)ncn2c1=O` [temozolomide] + COC(=O)c1sccc1S(=O)(=O)Nc1ccc(Nc2ccccc2)cc1OC [GSK0660] (first compound 2 µM, partner dose 1 µM), the “cleaved PARP positive nuclei fraction” value stood at 42%.
Regarding `C[C@@H]1CCN(C(=O)CC#N)C[C@@H]1N(C)c1ncnc2[nH]ccc12` + Oc1nc(-c2ccc(C(F)(F)F)cc2)nc2c1CSCC2 [XAV939] (first compound 1 µM, partner dose 2 µM), the “cleaved PARP positive nuclei fraction” value came to 81.2%.
For the compound `COCC[n+]1c2c(n(Cc3cnccn3)c1C)C(=O)c1ccccc1C2=O` + O=C(O)C(=O)Nc1sc2c(c1C(=O)O)CCNC2 [TCS401] (first compound 0.0004 µM, partner dose 1.66667 µM), the “cleaved PARP positive nuclei fraction” value was 102%.
Take `O=C(CCCCCCC(=O)Nc1ccccc1)NO` [vorinostat] + Oc1nc(-c2ccc(C(F)(F)F)cc2)nc2c1CSCC2 [XAV939] (first compound 0.08 µM, partner dose 2 µM): the “cleaved PARP positive nuclei fraction” value worked out at 275%.
With `COc1cc(Nc2ncc(F)c(Nc3ccc4c(n3)NC(=O)C(C)(C)O4)n2)cc(OC)c1OC` [Tamatinib] + COc1ccc(COc2ccc(Cc3cnc(N)nc3N)cc2OC)cc1 [GW2580] (first compound 0.4 µM, partner dose 1 µM), the “cleaved PARP positive nuclei fraction” value turned out to be 46.6%.
`Cc1nc(Nc2ncc(C(=O)Nc3c(C)cccc3Cl)s2)cc(N2CCN(CCO)CC2)n1` [dasatanib] + CCc1ccc(CCOc2ccc(CC3SC(=O)NC3=O)cc2)nc1 [pioglitazone] (first compound 0.004 µM, partner dose 2 µM): the “cleaved PARP positive nuclei fraction” value is 119%.
In the case of `Cc1cc(N2CCOCC2)cc2[nH]c(-c3c(NC[C@@H](O)c4cccc(Cl)c4)cc[nH]c3=O)nc12` + Cn1cc(/C=C2\C(=O)Nc3cccnc32)c2ccccc21 [GW441756] (first compound 0.2 µM, partner dose 0.4 µM), the “cleaved PARP positive nuclei fraction” value stood at 66.6%.

(Values after the supplement of paper PMC4604168 (melanoma cell lines).)
